Record: PubChem BioAssay AID1159578 (Peter MacCallum Cancer Centre, 2015)

- Aim: 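Genome-wide hunt for genes controlling movement of lymphatic endothelial cells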 (primary screen)
- Cells: human lymphatic endothelial cells
- Reagents: siRNA pool against human genes, 40 nM
- Timing: 48 h after transfection
- Measured: 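Cells stained with dye and imaged after a scratch; covered wound area and nuclei counted, duplicates averaged, migration set against mock wells and turned into a robust z-score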
- Reading the numbers: migration robust z-score: higher = faster migration into the scratch; nuclei per well: higher = more cells in the well
- Hit rule: 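Pools averaging fewer than 3300 nuclei are never called; remaining pools count as changed when migration robust z lies outside -2 to 2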
- Calls: active = migration changed; inactive = no migration change, or too few cells
In all, the deposit lists about 18,000 reagents; below is a part drawn at random. Over the whole deposit, about 1,030 (5.7%) were called active. 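Inactive calls also include pools with fewer than 3300 nuclei, whose migration was not assessed.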 Raw values vary from plate to plate and are shown uncorrected. Unmarked entries are inactive. Further read-outs or replicates are left out here. No sequences are given here.

SLC51B (SLC51 subunit beta) scored migration robust z-score 0; migration class with cell-count check migration z between -2 and 2; enough cells; nuclei per well, duplicate mean 5156. With knock-down of KRT35 (keratin 35), the screen gave migration robust z-score -1.39; migration class with cell-count check migration z between -2 and 2; enough cells; nuclei per well, duplicate mean 4143. GPR12 (G protein-coupled receptor 12) scored migration robust z-score -0.8; migration class with cell-count check migration z between -2 and 2; enough cells; nuclei per well, duplicate mean 4540. CA14 (carbonic anhydrase 14) gave migration robust z-score -0.64; migration class with cell-count check migration z between -2 and 2; enough cells; nuclei per well, duplicate mean 5459.

Just “nuclei per well, duplicate mean”, for 2 of the entries above:
KRT35 (keratin 35): 4143
GPR12 (G protein-coupled receptor 12): 4540

Further entries follow:
For TSPO2 (translocator protein 2), the values are migration robust z-score -0.48; migration class with cell-count check migration z between -2 and 2; enough cells; nuclei per well, duplicate mean 5633. FRMPD2 (FERM and PDZ domain containing 2) gave migration robust z-score 0.22; migration class with cell-count check migration z between -2 and 2; enough cells; nuclei per well, duplicate mean 5420. AK8 (adenylate kinase 8) gave migration robust z-score 0.46; migration class with cell-count check migration z between -2 and 2; enough cells; nuclei per well, duplicate mean 7002. With knock-down of CLIC1 (CLIC family member 1) the results were migration robust z-score -2.21 (active); migration class with cell-count check migration z below -2; enough cells; nuclei per well, duplicate mean 4870. With knock-down of ASPN (asporin) the results were migration robust z-score 0.55; migration class with cell-count check migration z between -2 and 2; enough cells; nuclei per well, duplicate mean 6018. ATP5F1D (ATP synthase F1 subunit delta) gave migration robust z-score -1.37; migration class with cell-count check migration z between -2 and 2; enough cells; nuclei per well, duplicate mean 4574.

HDAC5 (histone deacetylase 5) scored migration robust z-score -1.14; migration class with cell-count check migration z between -2 and 2; enough cells; nuclei per well, duplicate mean 4742. After knock-down of MAGEE2 (MAGE family member E2), the record shows migration robust z-score -0.8; migration class with cell-count check migration z between -2 and 2; enough cells; nuclei per well, duplicate mean 6264.
